Values from PubChem BioAssay AID1224830 (NIAID, 2016).
In all, the deposit lists about 18,000 reagents; this is a random part of them. Over the whole deposit, about 2,900 (16%) were called active. 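Calls are made per well; low scores hint the gene aids the LPS response, high scores that it dampens it.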 Repeated entries: four replicate wells of each siRNA pool. Reagent sequences are not shown.

Aim: 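Genes whose knock-down alters the TNF-alpha reporter response to LPS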 (primary screen)
Cell system: human THP-1 monocytic leukaemia cells, TNF dual-luciferase reporter clone, PMA-differentiated to macrophage-like cells
Knock-down reagent: siRNA pool against human genes, 50 nM
Time to read-out: LPS for 4 h, given about 3 days after siRNA transfection
Challenge: bacterial LPS (TLR4 ligand), 10 ng/ml
Measurement: 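TNF firefly reporter luminescence divided by renilla, normalised to the plate median, then turned into a robust z-score for each replicate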
Scale: TNF reporter robust z-score: higher = stronger TNF reporter response to LPS
Rule for the call: 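a well is active when its z-score exceeds 2.8 or falls below -1.5; control wells carry no call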

ZNF438 showed TNF reporter robust z-score -0.7; inactive.
With knock-down of ZNF438, the screen gave TNF reporter robust z-score -0.71; inactive.
For ZNF438 the deposit lists TNF reporter robust z-score -1.14; inactive.
With knock-down of ZNF438, the screen gave TNF reporter robust z-score -0.42; inactive.
After knock-down of GALNT9 the results were TNF reporter robust z-score 0.43; inactive.
For GALNT9, the values are TNF reporter robust z-score 0.93; inactive.
Against GALNT9 the deposit lists TNF reporter robust z-score 0.16; inactive.
Knock-down of GALNT9 came out at: TNF reporter robust z-score 0.69; inactive.
With knock-down of WDR49 the results were TNF reporter robust z-score -0.17; inactive.
Silencing of WDR49 resulted in: TNF reporter robust z-score -0.3; inactive.
Silencing of WDR49 came out at: TNF reporter robust z-score -0.25; inactive.
After knock-down of WDR49, the screen gave TNF reporter robust z-score -0.35; inactive.
JAM2 showed TNF reporter robust z-score -0.46; inactive.
Silencing of JAM2 came out at: TNF reporter robust z-score 0.37; inactive.
After knock-down of JAM2 the results were TNF reporter robust z-score -0.63; inactive.
With knock-down of JAM2, the screen gave TNF reporter robust z-score 0.31; inactive.
Against MCCD1 the deposit lists TNF reporter robust z-score 0.31; inactive.
For MCCD1, the values are TNF reporter robust z-score 0.97; inactive.
Depletion of MCCD1 came out at: TNF reporter robust z-score -0.04; inactive.
With knock-down of MCCD1 the results were TNF reporter robust z-score 0.16; inactive.
After knock-down of HARS1, the screen gave TNF reporter robust z-score 0.41; inactive.
With knock-down of HARS1 the results were TNF reporter robust z-score 0.2; inactive.
Against HARS1, the values are TNF reporter robust z-score -0.52; inactive.
Knock-down of HARS1 came out at: TNF reporter robust z-score -0.18; inactive.
Against SAMD5, the values are TNF reporter robust z-score -0.68; inactive.
Silencing of SAMD5 resulted in: TNF reporter robust z-score 0.49; inactive.
SAMD5 showed TNF reporter robust z-score 1.99; inactive.
Knock-down of SAMD5 came out at: TNF reporter robust z-score 0.36; inactive.

7 neighbouring reagents from above:
GALNT9: TNF reporter robust z-score = 0.43; outcome = inactive
GALNT9: TNF reporter robust z-score = 0.93; outcome = inactive
GALNT9: TNF reporter robust z-score = 0.16; outcome = inactive
GALNT9: TNF reporter robust z-score = 0.69; outcome = inactive
WDR49: TNF reporter robust z-score = -0.17; outcome = inactive
WDR49: TNF reporter robust z-score = -0.3; outcome = inactive
WDR49: TNF reporter robust z-score = -0.25; outcome = inactive

Continued:
After knock-down of OR2D3 the results were TNF reporter robust z-score -0.71; inactive.
For OR2D3 the deposit lists TNF reporter robust z-score -0.76; inactive.
After knock-down of OR2D3, the record shows TNF reporter robust z-score -0.35; inactive.
Depletion of KRTAP13-1 gave: TNF reporter robust z-score -1.57; active.
For KRTAP13-1, the entry reads TNF reporter robust z-score -0.71; inactive.
Silencing of KRTAP13-1 resulted in: TNF reporter robust z-score -0.24; inactive.
KRTAP13-1 gave TNF reporter robust z-score -0.14; inactive.
Against NHLRC4 the deposit lists TNF reporter robust z-score -0.38; inactive.
NHLRC4 scored TNF reporter robust z-score -0.29; inactive.
NHLRC4 showed TNF reporter robust z-score -0.5; inactive.
NHLRC4 showed TNF reporter robust z-score -0.51; inactive.
Against STK3 the deposit lists TNF reporter robust z-score 0.59; inactive.
Against STK3 the deposit lists TNF reporter robust z-score 0.12; inactive.
STK3 scored TNF reporter robust z-score -0.61; inactive.
SMPDL3A scored TNF reporter robust z-score -0.72; inactive.
SMPDL3A showed TNF reporter robust z-score -0.18; inactive.
With knock-down of SMPDL3A the results were TNF reporter robust z-score -0.41; inactive.
SMPDL3A scored TNF reporter robust z-score -0.5; inactive.
After knock-down of LGALS8, the screen gave TNF reporter robust z-score -0.32; inactive.
LGALS8 gave TNF reporter robust z-score 0.88; inactive.
For LGALS8, the values are TNF reporter robust z-score -0.25; inactive.
With knock-down of LGALS8, the screen gave TNF reporter robust z-score -0.39; inactive.
